Laboratory results from publication PMC2662470.
No constants are given. Whether binding was seen depends on the method and setting. Some entries that bind do so weakly or less than the wild type.

By UniProt entry, the sequences of proteins in these tests, tags left out. Residues count along the entry.
PDZ domain (of PICK1) (Q9EP80, residues 22-105): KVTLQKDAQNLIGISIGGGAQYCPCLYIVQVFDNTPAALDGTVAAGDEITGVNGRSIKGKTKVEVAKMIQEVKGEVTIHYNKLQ
C-terminal BARc region (amino acids 128–416) of rat PICK1 (Q9EP80, residues 128-416): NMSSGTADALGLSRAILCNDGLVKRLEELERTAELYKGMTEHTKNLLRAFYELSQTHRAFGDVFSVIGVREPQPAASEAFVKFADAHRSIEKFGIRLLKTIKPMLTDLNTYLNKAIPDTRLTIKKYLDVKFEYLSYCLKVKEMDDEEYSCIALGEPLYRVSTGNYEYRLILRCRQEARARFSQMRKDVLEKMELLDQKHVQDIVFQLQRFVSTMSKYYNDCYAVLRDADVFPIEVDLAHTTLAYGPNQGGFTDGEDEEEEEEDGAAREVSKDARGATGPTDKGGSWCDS

Target: PDZ domain (of PICK1) (rat) (UniProt Q9EP80)
Assay: pull-down; about 20 ug PDZ domain on Ni2+-NTA agarose beads mixed with 0, 25, 50, 100 ug soluble BARc in 500 ul buffer, 2 h at 4 °C; washed five times with 50 mM Tris-HCl, 150 mM NaCl, 5 mM imidazole, pH 7.5; SDS-PAGE; both purified

- binding: binds
Substance: C-terminal BARc region (amino acids 128–416) of rat PICK1 (from UniProt Q9EP80 128-416) (domain or fragment)
